Assay results as given in article PMC9076133.
These are yes or no findings as the source states them, for the method shown. Binding seen in cells or lysates may run through a third protein. These calls come from enrichment with a bait or labelling near it, and not all partners need be listed.

The chains behind the UniProt entries cited, without tags or fusion partners.
UniProt O00487: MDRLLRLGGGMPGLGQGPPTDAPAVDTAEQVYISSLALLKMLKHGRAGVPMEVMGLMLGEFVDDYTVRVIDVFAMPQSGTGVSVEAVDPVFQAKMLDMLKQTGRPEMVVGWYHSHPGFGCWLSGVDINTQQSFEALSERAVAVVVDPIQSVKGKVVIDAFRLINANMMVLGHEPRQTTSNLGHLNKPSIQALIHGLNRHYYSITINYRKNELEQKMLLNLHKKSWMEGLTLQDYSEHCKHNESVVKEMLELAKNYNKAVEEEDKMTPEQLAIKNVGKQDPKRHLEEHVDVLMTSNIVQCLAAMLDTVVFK
UniProt P46379: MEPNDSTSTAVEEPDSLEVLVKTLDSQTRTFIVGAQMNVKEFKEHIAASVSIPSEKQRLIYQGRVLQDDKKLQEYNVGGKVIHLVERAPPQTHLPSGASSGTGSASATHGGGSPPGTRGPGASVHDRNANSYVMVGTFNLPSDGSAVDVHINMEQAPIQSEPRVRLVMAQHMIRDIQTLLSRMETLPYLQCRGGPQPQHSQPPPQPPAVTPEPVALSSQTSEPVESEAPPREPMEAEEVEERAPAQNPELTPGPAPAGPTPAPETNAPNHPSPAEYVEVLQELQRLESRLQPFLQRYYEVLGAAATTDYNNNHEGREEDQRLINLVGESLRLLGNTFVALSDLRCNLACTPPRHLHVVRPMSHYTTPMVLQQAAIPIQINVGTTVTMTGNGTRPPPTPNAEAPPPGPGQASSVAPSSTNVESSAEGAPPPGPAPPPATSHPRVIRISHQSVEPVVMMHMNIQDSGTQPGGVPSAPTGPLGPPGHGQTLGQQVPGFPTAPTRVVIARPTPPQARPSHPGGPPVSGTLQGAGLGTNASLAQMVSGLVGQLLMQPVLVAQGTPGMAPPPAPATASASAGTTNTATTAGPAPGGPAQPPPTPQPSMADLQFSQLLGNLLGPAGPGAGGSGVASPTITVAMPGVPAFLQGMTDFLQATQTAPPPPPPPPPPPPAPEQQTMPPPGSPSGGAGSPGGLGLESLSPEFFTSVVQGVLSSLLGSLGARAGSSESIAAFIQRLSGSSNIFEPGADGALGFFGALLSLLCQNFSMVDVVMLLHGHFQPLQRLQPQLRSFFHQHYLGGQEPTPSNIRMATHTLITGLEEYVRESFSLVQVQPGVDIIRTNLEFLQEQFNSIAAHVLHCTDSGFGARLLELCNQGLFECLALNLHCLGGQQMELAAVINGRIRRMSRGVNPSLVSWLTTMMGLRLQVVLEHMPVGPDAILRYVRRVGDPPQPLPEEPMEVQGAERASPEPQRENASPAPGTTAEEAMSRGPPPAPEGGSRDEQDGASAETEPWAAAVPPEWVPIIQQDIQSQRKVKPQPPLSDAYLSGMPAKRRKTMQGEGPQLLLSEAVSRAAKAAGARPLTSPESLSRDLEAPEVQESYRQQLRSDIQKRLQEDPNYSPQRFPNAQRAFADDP
UniProt Q14997: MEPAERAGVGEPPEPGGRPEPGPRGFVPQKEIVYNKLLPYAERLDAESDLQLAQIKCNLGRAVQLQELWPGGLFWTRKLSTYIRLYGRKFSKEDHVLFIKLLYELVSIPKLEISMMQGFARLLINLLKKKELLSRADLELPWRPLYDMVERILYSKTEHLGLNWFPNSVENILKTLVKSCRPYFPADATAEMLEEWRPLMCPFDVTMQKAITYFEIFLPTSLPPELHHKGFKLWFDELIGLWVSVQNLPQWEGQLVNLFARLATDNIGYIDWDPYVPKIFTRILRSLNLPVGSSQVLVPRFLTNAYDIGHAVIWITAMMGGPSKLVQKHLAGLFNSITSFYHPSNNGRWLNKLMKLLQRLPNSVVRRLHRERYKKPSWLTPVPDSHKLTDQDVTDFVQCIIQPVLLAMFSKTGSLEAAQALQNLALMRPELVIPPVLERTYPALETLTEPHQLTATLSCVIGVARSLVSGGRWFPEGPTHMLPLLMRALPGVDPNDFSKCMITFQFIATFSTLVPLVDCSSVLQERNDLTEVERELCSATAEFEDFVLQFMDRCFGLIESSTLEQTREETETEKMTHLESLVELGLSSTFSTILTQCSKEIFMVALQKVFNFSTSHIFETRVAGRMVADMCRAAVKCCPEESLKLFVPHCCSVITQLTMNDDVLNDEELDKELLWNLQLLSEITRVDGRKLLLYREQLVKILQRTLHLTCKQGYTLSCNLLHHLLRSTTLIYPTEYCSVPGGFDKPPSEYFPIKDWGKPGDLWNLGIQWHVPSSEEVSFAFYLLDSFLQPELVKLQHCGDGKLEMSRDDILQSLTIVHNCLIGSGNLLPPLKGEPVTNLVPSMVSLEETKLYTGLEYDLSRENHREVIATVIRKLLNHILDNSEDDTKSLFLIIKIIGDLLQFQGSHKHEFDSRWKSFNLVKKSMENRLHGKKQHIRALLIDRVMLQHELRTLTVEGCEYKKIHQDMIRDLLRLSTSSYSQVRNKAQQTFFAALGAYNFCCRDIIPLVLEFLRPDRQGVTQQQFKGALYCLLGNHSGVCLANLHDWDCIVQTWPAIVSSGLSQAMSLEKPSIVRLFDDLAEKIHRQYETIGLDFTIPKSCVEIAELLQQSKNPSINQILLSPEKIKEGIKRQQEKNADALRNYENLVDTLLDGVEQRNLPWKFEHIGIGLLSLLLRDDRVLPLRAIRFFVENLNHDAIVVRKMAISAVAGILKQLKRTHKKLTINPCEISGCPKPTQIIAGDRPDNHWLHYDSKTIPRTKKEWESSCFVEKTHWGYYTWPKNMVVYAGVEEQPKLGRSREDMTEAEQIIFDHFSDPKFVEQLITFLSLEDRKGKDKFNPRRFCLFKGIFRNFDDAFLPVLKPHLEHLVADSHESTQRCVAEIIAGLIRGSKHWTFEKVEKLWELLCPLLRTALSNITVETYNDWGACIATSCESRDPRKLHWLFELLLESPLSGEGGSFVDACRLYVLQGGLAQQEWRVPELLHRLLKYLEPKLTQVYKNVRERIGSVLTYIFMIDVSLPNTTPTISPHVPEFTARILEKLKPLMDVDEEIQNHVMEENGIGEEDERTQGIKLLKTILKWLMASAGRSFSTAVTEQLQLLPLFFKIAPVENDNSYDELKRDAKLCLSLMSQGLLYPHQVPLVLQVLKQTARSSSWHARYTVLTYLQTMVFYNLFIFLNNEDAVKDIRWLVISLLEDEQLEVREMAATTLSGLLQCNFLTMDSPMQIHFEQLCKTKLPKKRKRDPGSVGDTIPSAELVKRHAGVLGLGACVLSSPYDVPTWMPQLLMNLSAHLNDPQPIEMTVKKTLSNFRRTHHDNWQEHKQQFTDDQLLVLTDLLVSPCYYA
UniProt Q06323: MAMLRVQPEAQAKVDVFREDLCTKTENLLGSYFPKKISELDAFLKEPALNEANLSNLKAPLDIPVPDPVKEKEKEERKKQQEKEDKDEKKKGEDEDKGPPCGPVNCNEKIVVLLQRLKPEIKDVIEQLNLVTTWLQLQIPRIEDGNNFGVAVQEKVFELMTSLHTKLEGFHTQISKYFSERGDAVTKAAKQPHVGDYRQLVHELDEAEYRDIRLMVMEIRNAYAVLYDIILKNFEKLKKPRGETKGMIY
UniProt Q9UL46: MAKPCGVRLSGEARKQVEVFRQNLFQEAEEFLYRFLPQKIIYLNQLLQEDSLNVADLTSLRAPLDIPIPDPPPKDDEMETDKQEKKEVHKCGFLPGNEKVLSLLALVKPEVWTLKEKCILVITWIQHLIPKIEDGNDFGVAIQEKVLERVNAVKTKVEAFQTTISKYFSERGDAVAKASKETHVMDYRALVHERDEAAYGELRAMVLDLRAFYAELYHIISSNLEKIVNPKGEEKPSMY

Target: HBTH-tagged PSMD14 (Rpn11-HTBH) (UniProt O00487)
Experiment: affinity purification with mass spectrometry; proteasomes with HTBH-tagged Rpn11 captured from lysate of HEK293 Rpn11-HTBH cells (treated with 1 µM b-AP15 or 0.1% DMSO) on streptavidin magnetic beads overnight at 4°C in 50 mM HEPES, 5 mM MgCl2, 10% glycerol, 2 mM ATP, 50 mM NaCl; released with AcTEV protease; LC-MS/MS with label-free quantification

| Substance | binding |
| --- | --- |
| BAG6 (BCL2 Associated Athanogene 6) (from UniProt P46379 1-1132) | binds |
| PA200 (from UniProt Q14997 1-1843) | binds |
| PSME1 (from UniProt Q06323 1-249) | binds |
| PSME2 (from UniProt Q9UL46 1-239) | binds |
